The entries are a selection whose mix differs from that of the whole data set. The data scatter; read single values as rough.

By UniProt entry, the sequences of proteins in these tests, tags left out. Where a name states a change or a piece, a line headed by the entry shows the natural chain unless it says otherwise.
UniProt O95487: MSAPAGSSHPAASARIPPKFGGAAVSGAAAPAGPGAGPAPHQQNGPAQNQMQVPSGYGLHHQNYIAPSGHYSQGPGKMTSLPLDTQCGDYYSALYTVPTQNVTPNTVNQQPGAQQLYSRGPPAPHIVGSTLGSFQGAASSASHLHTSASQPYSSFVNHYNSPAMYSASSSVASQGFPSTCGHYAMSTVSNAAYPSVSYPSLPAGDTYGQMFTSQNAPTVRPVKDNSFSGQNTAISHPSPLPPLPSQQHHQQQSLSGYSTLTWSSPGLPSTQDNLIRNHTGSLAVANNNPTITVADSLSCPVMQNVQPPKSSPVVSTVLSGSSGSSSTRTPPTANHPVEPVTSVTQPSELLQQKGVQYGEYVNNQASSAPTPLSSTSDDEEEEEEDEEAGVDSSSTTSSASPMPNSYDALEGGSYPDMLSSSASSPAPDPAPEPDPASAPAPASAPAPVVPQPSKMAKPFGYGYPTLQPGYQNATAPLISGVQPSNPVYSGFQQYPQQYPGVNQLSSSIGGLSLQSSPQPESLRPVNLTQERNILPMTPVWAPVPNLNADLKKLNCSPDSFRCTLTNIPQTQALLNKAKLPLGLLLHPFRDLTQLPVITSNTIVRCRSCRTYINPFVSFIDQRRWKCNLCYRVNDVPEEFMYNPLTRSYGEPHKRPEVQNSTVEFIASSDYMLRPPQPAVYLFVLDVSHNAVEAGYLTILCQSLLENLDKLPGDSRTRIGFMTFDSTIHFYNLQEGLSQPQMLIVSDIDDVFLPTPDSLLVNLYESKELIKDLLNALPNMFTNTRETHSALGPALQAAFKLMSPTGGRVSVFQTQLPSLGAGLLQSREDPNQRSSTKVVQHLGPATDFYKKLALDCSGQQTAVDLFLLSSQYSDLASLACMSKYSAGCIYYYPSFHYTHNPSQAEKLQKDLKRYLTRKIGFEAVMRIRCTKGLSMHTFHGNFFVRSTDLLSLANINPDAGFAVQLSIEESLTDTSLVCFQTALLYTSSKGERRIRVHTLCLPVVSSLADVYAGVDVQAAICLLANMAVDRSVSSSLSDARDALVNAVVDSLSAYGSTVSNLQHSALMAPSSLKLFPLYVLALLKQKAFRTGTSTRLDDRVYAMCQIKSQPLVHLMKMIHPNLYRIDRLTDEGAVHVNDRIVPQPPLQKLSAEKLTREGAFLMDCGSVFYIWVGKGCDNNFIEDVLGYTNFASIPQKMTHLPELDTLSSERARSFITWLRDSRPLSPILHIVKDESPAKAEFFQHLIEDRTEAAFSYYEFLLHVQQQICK
UniProt O95757: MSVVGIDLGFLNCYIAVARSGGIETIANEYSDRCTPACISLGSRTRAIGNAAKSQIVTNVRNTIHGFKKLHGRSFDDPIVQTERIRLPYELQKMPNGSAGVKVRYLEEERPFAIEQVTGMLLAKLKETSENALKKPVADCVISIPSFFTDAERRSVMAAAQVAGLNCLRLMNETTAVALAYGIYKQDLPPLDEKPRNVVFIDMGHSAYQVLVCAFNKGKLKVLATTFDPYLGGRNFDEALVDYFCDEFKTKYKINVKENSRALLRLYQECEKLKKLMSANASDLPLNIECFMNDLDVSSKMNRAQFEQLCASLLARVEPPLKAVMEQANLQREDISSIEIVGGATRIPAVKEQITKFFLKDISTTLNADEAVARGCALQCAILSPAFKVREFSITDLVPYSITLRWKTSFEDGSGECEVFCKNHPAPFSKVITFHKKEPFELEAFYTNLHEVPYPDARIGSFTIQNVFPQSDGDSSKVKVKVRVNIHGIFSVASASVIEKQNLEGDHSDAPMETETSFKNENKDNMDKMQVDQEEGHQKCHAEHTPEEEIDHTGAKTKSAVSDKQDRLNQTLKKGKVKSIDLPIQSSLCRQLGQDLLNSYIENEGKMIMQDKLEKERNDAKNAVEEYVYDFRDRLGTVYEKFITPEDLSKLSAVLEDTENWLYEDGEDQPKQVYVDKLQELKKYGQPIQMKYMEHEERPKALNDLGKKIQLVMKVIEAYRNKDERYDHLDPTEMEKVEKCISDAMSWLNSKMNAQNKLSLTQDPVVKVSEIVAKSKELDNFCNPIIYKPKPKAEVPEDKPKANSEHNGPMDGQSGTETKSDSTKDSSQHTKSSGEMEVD
UniProt P06748, whole entry, looked up: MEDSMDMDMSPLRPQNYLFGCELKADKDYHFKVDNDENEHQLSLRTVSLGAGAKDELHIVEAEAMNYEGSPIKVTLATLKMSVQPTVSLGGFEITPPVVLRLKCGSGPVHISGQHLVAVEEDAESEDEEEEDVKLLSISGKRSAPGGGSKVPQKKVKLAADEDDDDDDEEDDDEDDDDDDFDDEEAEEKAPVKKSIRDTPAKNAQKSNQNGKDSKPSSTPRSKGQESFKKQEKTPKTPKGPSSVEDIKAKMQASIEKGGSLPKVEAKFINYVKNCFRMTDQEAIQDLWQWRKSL
UniProt O95295: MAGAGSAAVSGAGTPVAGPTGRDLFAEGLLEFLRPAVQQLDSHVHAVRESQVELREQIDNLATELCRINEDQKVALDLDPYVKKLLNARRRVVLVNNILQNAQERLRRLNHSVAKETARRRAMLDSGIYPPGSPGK
UniProt O95336: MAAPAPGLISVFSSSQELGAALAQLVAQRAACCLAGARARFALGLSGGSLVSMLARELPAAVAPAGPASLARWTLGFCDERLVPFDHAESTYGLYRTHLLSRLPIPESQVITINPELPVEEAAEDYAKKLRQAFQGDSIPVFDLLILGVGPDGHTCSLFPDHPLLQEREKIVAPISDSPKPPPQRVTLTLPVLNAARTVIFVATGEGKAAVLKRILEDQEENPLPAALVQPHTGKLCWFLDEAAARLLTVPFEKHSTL
UniProt P07814: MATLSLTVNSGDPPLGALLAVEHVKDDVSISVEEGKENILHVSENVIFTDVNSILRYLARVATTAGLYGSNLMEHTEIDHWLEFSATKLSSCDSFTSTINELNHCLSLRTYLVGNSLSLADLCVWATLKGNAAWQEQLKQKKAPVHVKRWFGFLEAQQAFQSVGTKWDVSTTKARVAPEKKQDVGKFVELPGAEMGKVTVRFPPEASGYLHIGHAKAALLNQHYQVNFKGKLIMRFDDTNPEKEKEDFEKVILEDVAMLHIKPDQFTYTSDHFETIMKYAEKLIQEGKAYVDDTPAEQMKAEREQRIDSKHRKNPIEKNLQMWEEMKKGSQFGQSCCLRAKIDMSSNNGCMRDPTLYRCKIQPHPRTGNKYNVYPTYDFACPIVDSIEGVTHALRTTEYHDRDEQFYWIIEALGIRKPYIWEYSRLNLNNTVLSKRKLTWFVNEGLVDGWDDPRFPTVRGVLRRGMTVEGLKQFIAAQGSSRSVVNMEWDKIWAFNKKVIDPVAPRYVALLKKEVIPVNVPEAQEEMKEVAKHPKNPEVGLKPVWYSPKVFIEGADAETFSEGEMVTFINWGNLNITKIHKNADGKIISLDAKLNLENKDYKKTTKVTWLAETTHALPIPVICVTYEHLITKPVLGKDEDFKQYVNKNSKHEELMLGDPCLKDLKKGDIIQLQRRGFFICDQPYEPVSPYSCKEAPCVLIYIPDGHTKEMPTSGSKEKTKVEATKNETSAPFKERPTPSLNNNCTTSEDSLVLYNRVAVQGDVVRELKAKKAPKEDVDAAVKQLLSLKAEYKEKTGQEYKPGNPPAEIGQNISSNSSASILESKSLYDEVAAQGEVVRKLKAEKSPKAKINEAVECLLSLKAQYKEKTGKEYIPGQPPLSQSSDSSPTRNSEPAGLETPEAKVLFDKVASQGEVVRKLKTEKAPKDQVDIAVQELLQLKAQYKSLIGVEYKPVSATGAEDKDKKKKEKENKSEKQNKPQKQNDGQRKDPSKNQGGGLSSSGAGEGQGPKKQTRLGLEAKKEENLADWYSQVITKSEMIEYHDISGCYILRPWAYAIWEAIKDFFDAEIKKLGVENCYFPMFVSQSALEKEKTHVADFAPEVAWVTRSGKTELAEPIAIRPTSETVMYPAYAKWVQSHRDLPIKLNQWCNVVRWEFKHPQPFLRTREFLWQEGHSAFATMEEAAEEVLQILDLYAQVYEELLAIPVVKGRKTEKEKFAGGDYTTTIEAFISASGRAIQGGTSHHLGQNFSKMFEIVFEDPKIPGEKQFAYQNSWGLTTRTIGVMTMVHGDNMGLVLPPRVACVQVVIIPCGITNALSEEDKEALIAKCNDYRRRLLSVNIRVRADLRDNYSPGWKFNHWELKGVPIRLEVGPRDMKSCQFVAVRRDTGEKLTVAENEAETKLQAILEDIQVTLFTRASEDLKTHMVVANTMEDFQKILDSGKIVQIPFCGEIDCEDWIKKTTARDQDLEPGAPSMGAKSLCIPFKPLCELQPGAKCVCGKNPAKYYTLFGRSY
UniProt O95218: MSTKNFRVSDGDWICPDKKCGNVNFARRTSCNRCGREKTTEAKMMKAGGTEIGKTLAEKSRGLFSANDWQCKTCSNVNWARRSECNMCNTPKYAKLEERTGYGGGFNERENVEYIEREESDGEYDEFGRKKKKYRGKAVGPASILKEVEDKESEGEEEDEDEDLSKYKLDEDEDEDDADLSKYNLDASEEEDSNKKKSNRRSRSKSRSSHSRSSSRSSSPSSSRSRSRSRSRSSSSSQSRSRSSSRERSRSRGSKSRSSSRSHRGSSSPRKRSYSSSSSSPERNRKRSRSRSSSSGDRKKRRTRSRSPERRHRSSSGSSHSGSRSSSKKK
UniProt O94906: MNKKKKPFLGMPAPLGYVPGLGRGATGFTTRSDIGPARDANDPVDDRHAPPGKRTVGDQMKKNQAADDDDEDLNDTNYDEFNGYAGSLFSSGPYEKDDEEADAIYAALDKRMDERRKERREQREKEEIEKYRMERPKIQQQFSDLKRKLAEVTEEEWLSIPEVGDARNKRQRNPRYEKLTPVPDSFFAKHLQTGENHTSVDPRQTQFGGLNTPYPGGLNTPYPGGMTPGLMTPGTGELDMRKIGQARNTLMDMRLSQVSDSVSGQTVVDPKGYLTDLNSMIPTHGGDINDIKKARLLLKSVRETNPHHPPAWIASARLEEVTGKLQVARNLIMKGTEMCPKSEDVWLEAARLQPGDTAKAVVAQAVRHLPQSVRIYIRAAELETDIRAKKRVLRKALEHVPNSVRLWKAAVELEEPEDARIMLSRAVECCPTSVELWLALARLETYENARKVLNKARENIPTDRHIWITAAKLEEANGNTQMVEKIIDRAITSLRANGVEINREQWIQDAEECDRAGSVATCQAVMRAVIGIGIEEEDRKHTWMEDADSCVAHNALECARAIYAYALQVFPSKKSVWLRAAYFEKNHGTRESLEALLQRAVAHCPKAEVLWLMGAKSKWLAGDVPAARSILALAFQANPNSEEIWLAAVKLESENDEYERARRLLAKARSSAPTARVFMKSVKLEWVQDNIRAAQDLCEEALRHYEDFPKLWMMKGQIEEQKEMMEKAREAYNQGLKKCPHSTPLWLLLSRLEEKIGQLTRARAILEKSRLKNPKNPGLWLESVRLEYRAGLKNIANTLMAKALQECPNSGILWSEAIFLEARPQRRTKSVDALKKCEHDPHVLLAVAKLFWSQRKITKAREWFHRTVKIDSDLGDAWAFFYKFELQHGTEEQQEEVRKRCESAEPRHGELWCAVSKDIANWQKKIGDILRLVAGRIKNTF
UniProt P04818: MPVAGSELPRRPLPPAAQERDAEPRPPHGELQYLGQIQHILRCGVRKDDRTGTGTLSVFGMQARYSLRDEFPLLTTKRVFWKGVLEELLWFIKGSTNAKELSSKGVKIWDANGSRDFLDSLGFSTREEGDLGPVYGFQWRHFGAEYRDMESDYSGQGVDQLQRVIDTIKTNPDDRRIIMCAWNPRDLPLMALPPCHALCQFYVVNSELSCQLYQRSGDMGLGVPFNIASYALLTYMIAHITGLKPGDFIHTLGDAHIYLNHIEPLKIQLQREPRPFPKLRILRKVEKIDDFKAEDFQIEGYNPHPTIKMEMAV
UniProt O95453: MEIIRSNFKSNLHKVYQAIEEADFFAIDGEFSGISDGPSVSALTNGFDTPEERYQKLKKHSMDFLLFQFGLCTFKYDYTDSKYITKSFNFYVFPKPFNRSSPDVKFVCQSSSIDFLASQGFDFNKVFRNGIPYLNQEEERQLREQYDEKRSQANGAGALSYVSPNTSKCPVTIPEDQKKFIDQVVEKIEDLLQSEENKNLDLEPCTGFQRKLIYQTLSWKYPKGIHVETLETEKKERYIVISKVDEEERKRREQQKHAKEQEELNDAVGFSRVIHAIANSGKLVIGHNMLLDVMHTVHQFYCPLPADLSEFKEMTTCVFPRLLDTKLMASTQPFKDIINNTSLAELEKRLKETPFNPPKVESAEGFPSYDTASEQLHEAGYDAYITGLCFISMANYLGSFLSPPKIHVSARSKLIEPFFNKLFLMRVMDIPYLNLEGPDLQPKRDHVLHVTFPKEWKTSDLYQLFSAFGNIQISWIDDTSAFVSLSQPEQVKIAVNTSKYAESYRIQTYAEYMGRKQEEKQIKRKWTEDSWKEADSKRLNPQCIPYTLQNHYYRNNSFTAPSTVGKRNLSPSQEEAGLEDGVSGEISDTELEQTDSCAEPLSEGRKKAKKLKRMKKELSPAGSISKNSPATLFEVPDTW

Compound in the test: COC(=O)/C=C/c1ccccc1 [methyl cinnamate]
The experiment in a line: log2 ratio of iodoacetamide-alkyne labeling of the cysteine site, DMSO over compound (competition); higher = stronger covalent engagement of the cysteine by the compound, active = 1 or more. Conditions: 500 µM; treatment time 1 h; system: HEK293T cell lysate. In a few lines:
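HEK293T lysate at 2 mg/mL was treated with vehicle or electrophile (500 µM) for 1 h at ambient temperature, then labelled with iodoacetamide alkyne (1 h), clicked to sCIP-TMT reagents, pooled, digested with trypsin overnight at 37 °C, enriched on streptavidin and eluted with acid. Peptides were analysed by Orbitrap Eclipse LC-MS/MS with FAIMS and quantified in FragPipe, using duplicate channels and three replicates, with cysteines quantified in only one replicate excluded. The log2 competition ratio for each cysteine is the mean control-channel reporter intensity divided by the mean compound-channel reporter intensity.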
As for PSMG1 C14 (UniProt O95456), the “log2 ratio of iodoacetamide-alkyne labeling” value (from here on “log2 ratio”) is inactive: 0.248.
Take PGK1 C50 (UniProt P00558): the “log2 ratio” value is inactive: 0.277.
With GAPDH C247 (UniProt P04406), the “log2 ratio” value is inactive: -0.00382.
ALDOA C202 (UniProt P04075): the “log2 ratio” value was inactive: 0.17.
On to GLS C518 (UniProt O94925), for which the “log2 ratio” value was inactive: -0.00961.
On to SEC24B C562 (UniProt O95487), for which the “log2 ratio” value is inactive: 0.398.
With HSPA4L C421 (UniProt O95757), the “log2 ratio” value is inactive: 0.122.
As to UniProt P07437_C201, the “log2 ratio” value is inactive: 0.193.
Consider AIFM1 C441 (UniProt O95831), for which the “log2 ratio” value was inactive: -0.0235.
Take NPM1 C21 (UniProt P06748): the “log2 ratio” value was inactive: 0.145.
In the case of GNAI2 C112 (UniProt P04899) it was inactive: 0.0232; in that of UniProt O96017_C385, inactive: -0.139.
For SNAPIN C66 (UniProt O95295), the “log2 ratio” value was inactive: 0.271.
As to UniProt O95478_C154, the “log2 ratio” value was inactive: 0.162.
As to PGLS C156 (UniProt O95336), the “log2 ratio” value was inactive: 0.226.
In the case of EPRS C1453 (UniProt P07814), the “log2 ratio” value was inactive: -0.0129.
As to PCF11 C1534 (UniProt O94913), the “log2 ratio” value was inactive: 0.266.
In the case of ZRANB2 C88 (UniProt O95218), the “log2 ratio” value is inactive: 0.153.
Take MFN2 C482 (UniProt O95140): the “log2 ratio” value is inactive: 0.153.
In the case of UniProt P07437_C211 it was inactive: 0.195; in that of PRPF6 C807 (UniProt O94906), inactive: -0.0921; in that of SOD1 C147 (UniProt P00441), inactive: -0.298.
With HERC2 C2726 (UniProt O95714), the “log2 ratio” value was inactive: 0.042.
In the case of UniProt O94822_C498, the “log2 ratio” value was inactive: 0.0225.
Regarding ATG7 C524 (UniProt O95352), the “log2 ratio” value was inactive: -0.154.
As for UniProt O94953_C971, the “log2 ratio” value was inactive: 0.257.
Regarding ZRANB2 C85 (UniProt O95218), the “log2 ratio” value was inactive: 0.153.
WIZ C1429 (UniProt O95785): the “log2 ratio” value was inactive: -0.0151.
Turning to PAK4 C276 (UniProt O96013), the “log2 ratio” value is inactive: 0.135.
With ENO1 C357 (UniProt P06733), the “log2 ratio” value is inactive: 0.0601.
Regarding TYMS C195 (UniProt P04818), the “log2 ratio” value was inactive: 0.00364.
With GLS C203 (UniProt O94925), the “log2 ratio” value is inactive: 0.224.
Turning to HEXB C551 (UniProt P07686), the “log2 ratio” value was inactive: 0.259.
On to SEC24B C1267 (UniProt O95487), for which the “log2 ratio” value is inactive: 0.0903.
For the target ZBED1 C76 (UniProt O96006), the “log2 ratio” value was inactive: 0.264.
Take LDHB C164 (UniProt P07195): the “log2 ratio” value is inactive: 0.401.
In the case of PARN C169 (UniProt O95453), the “log2 ratio” value was inactive: 0.33.

Values taken from the supplement of paper PMC11006884.
